US10525115B2 (Immatics Biotechnologies GmbH, priority 2014, dated 2020)

B1: ATP2B4 (protein, UniProt P23634 1-1241, looked up)
Plasma membrane …: MTNPSDRVLPANSMAESREGDFGCTVMELRKLMELRSRDALTQINVHYGGVQNLCSRLKTSPVEGLSGNPADLEKRRQVFGHNVIPPKKPKTFLELVWEALQDVTLIILEIAAIISLVLSFYRPAGEENELCGQVATTPEDENEAQAGWIEGAAILFSVIIVVLVTAFNDWSKEKQFRGLQCRIEQEQKFSIIRNGQLIQLPVAEIVVGDIAQVKYGDLLPADGILIQGNDLKIDESSLTGESDHVKKSLDKDPMLLSGTHVMEGSGRMVVTAVGVNSQTGIILTLLGVNEDDEGEKKKKGKKQGVPENRNKAKTQDGVALEIQPLNSQEGIDNEEKDKKAVKVPKKEKSVLQGKLTRLAVQIGKAGLLMSALTVFILILYFVIDNFVINRRPWLPECTPIYIQYFVKFFIIGITVLVVAVPEGLPLAVTISLAYSVKKMMKDNNLVRHLDACETMGNATAICSDKTGTLTMNRMTVVQAYIGGIHYRQIPSPDVFLPKVLDLIVNGISINSAYTSKILPPEKEGGLPRQVGNKTECALLGFVTDLKQDYQAVRNEVPEEKLYKVYTFNSVRKSMSTVIRNPNGGFRMYSKGASEIILRKCNRILDRKGEAVPFKNKDRDDMVRTVIEPMACDGLRTICIAYRDFDDTEPSWDNENEILTELTCIAVVGIEDPVRPEVPDAIAKCKQAGITVRMVTGDNINTARAIATKCGILTPGDDFLCLEGKEFNRLIRNEKGEVEQEKLDKIWPKLRVLARSSPTDKHTLVKGIIDSTVGEHRQVVAVTGDGTNDGPALKKADVGFAMGIAGTDVAKEASDIILTDDNFTSIVKAVMWGRNVYDSISKFLQFQLTVNVVAVIVAFTGACITQDSPLKAVQMLWVNLIMDTFASLALATEPPTESLLKRRPYGRNKPLISRTMMKNILGHAFYQLIVIFILVFAGEKFFDIDSGRKAPLHSPPSQHYTIVFNTFVLMQLFNEINSRKIHGEKNVFSGIYRNIIFCSVVLGTFICQIFIVEFGGKPFSCTSLSLSQWLWCLFIGIGELLWGQFISAIPTRSLKFLKEAGHGTTKEEITKDAEGLDEIDHAEMELRRGQILWFRGLNRIQTQIDVINTFQTGASFKGVLRRQNMGQHLDVKLVPSSSYIKVVKAFHSSLHESIQKPYNQKSIHSFMTHPEFAIEEELPRTPLLDEEEEENPDKASKFGTRVLLLDGEVTPYANTNNNAVDCNQVQLPQSDSSLQSLETSV
B2: ATP5L (protein, UniProt O75964 2-103, looked up)
ATP synthase F(0) complex …: AQFVRNLVEKTPALVNAAVTYSKPRLATFWYYAKVELVPPTPAEIPRAIQSLKKIVNSAQTGSFKQLTVKEAVLNGLVATEVLMWFYVGEIIGKRGIIGYDV
B3: CPA3 (protein, UniProt P15088 110-417, looked up)
Mast cell carboxypeptidase A: IPGRHSYAKYNNWEKIVAWTEKMMDKYPEMVSRIKIGSTVEDNPLYVLKIGEKNERRKAIFTDCGIHAREWVSPAFCQWFVYQATKTYGRNKIMTKLLDRMNFYILPVFNVDGYIWSWTKNRMWRKNRSKNQNSKCIGTDLNRNFNASWNSIPNTNDPCADNYRGSAPESEKETKAVTNFIRSHLNEIKVYITFHSYSQMLLFPYGYTSKLPPNHEDLAKVAKIGTDVLSTRYETRYIYGPIESTIYPISGSSLDWAYDLGIKHTFAFELRDKGKFGFLLPESRIKPTCRETMLAVKFIAKYILKHTS
B4: PRIM1 (protein, UniProt P49642 1-420, looked up)
DNA primase small subunit: METFDPTELPELLKLYYRRLFPYSQYYRWLNYGGVIKNYFQHREFSFTLKDDIYIRYQSFNNQSDLEKEMQKMNPYKIDIGAVYSHRPNQHNTVKLGAFQAQEKELVFDIDMTDYDDVRRCCSSADICPKCWTLMTMAIRIIDRALKEDFGFKHRLWVYSGRRGVHCWVCDESVRKLSSAVRSGIVEYLSLVKGGQDVKKKVHLSEKIHPFIRKSINIIKKYFEEYALVNQDILENKESWDKILALVPETIHDELQQSFQKSHNSLQRWEHLKKVASRYQNNIKNDKYGPWLEWEIMLQYCFPRLDINVSKGINHLLKSPFSVHPKTGRISVPIDLQKVDQFDPFTVPTISFICRELDAISTNEEEKEENEAESDVKHRTRDYKKTSLAPYVKVFEHFLENLDKSRKGELLKKSDLQKDF
B5: RENBP (protein, UniProt P51606 1-427, looked up)
N-acylglucosamine 2-epimerase: MSKGLPARQDMEKERETLQAWKERVGQELDRVVAFWMEHSHDQEHGGFFTCLGREGRVYDDLKYVWLQGRQVWMYCRLYRTFERFRHAQLLDAAKAGGEFLLRYARVAPPGKKCAFVLTRDGRPVKVQRTIFSECFYTMAMNELWRATGEVRYQTEAVEMMDQIVHWVQEDASGLGRPQLQGAPAAEPMAVPMMLLNLVEQLGEADEELAGKYAELGDWCARRILQHVQRDGQAVLENVSEGGKELPGCLGRQQNPGHTLEAGWFLLRHCIRKGDPELRAHVIDKFLLLPFHSGWDPDHGGLFYFQDADNFCPTQLEWAMKLWWPHSEAMIAFLMGYSDSGDPVLLRLFYQVAEYTFRQFRDPEYGEWFGYLSREGKVALSIKGGPFKGCFHVPRCLAMCEEMLGALLSRPAPAPSPAPTPACRGAE
B6: ZNF131 (protein, UniProt P52739 1-623, looked up)
Zinc finger protein 131: MEAEETMECLQEFPEHHKMILDRLNEQREQDRFTDITLIVDGHHFKAHKAVLAACSKFFYKFFQEFTQEPLVEIEGVSKMAFRHLIEFTYTAKLMIQGEEEANDVWKAAEFLQMLEAIKALEVRNKENSAPLEENTTGKNEAKKRKIAETSNVITESLPSAESEPVEIEVEIAEGTIEVEDEGIETLEEVASAKQSVKYIQSTGSSDDSALALLADITSKYRQGDRKGQIKEDGCPSDPTSKQVEGIEIVELQLSHVKDLFHCEKCNRSFKLFYHFKEHMKSHSTESFKCEICNKRYLRESAWKQHLNCYHLEEGGVSKKQRTGKKIHVCQYCEKQFDHFGHFKEHLRKHTGEKPFECPNCHERFARNSTLKCHLTACQTGVGAKKGRKKLYECQVCNSVFNSWDQFKDHLVIHTGDKPNHCTLCDLWFMQGNELRRHLSDAHNISERLVTEEVLSVETRVQTEPVTSMTIIEQVGKVHVLPLLQVQVDSAQVTVEQVHPDLLQDSQVHDSHMSELPEQVQVSYLEVGRIQTEEGTEVHVEELHVERVNQMPVEVQTELLEADLDHVTPEIMNQEERESSQADAAEAAREDHEDAEDLETKPTVDSEAEKAENEDRTALPVLE
B7: PAK4 (protein, UniProt O96013 1-591, looked up)
Serine/threonine-protein …: MFGKRKKRVEISAPSNFEHRVHTGFDQHEQKFTGLPRQWQSLIEESARRPKPLVDPACITSIQPGAPKTIVRGSKGAKDGALTLLLDEFENMSVTRSNSLRRDSPPPPARARQENGMPEEPATTARGGPGKAGSRGRFAGHSEAGGGSGDRRRAGPEKRPKSSREGSGGPQESSRDKRPLSGPDVGTPQPAGLASGAKLAAGRPFNTYPRADTDHPSRGAQGEPHDVAPNGPSAGGLAIPQSSSSSSRPPTRARGAPSPGVLGPHASEPQLAPPACTPAAPAVPGPPGPRSPQREPQRVSHEQFRAALQLVVDPGDPRSYLDNFIKIGEGSTGIVCIATVRSSGKLVAVKKMDLRKQQRRELLFNEVVIMRDYQHENVVEMYNSYLVGDELWVVMEFLEGGALTDIVTHTRMNEEQIAAVCLAVLQALSVLHAQGVIHRDIKSDSILLTHDGRVKLSDFGFCAQVSKEVPRRKSLVGTPYWMAPELISRLPYGPEVDIWSLGIMVIEMVDGEPPYFNEPPLKAMKMIRDNLPPRLKNLHKVSPSLKGFLDRLLVRDPAQRATAAELLKHPFLAKAGPPASIVPLMRQNRTR
B8: CCNG1 (protein, UniProt P51959 1-295, looked up)
Cyclin-G1: MIEVLTTTDSQKLLHQLNALLEQESRCQPKVCGLRLIESAHDNGLRMTARLRDFEVKDLLSLTQFFGFDTETFSLAVNLLDRFLSKMKVQPKHLGCVGLSCFYLAVKSIEEERNVPLATDLIRISQYRFTVSDLMRMEKIVLEKVCWKVKATTAFQFLQLYYSLLQENLPLERRNSINFERLEAQLKACHCRIIFSKAKPSVLALSIIALEIQAQKCVELTEGIECLQKHSKINGRDLTFWQELVSKCLTEYSSNKCSKPNVQKLKWIVSGRTARQLKHSYYRITHLPTIPEMVP
B9: AZU1 (protein, UniProt P20160 27-248, looked up)
Azurocidin: IVGGRKARPRQFPFLASIQNQGRHFCGGALIHARFVMTAASCFQSQNPGVSTVVLGAYDLRRRERQSRQTFSISSMSENGYDPQQNLNDLMLLQLDREANLTSSVTILPLPLQNATVEAGTRCQVAGWGSQRSGGRLSRFPRFVNVTVTPEDQCRPNNVCTGVLTRRGGICNGDGGTPLVCEGLAHGVASFSLGPCGRGPDFFTRVALFRDWIDGVLNNPGP
B10: HAL (protein, UniProt P42357 1-657, looked up)
Histidine ammonia-lyase: MPRYTVHVRGEWLAVPCQDAQLTVGWLGREAVRRYIKNKPDNGGFTSVDDAHFLVRRCKGLGLLDNEDRLEVALENNEFVEVVIEGDAMSPDFIPSQPEGVYLYSKYREPEKYIELDGDRLTTEDLVNLGKGRYKIKLTPTAEKRVQKSREVIDSIIKEKTVVYGITTGFGKFARTVIPINKLQELQVNLVRSHSSGVGKPLSPERCRMLLALRINVLAKGYSGISLETLKQVIEMFNASCLPYVPEKGTVGASGDLAPLSHLALGLVGEGKMWSPKSGWADAKYVLEAHGLKPVILKPKEGLALINGTQMITSLGCEAVERASAIARQADIVAALTLEVLKGTTKAFDTDIHALRPHRGQIEVAFRFRSLLDSDHHPSEIAESHRFCDRVQDAYTLRCCPQVHGVVNDTIAFVKNIITTELNSATDNPMVFANRGETVSGGNFHGEYPAKALDYLAIGIHELAAISERRIERLCNPSLSELPAFLVAEGGLNSGFMIAHCTAAALVSENKALCHPSSVDSLSTSAATEDHVSMGGWAARKALRVIEHVEQVLAIELLAACQGIEFLRPLKTTTPLEKVYDLVRSVVRPWIKDRFMAPDIEAAHRLLLEQKVWEVAAPYIEKYRMEHIPESRPLSPTAFSLQFLHKKSTKIPESEDL
B11: HRSP12 (protein, UniProt P52758 2-137, looked up)
2-iminobutanoate/2-iminopropan …: SSLIRRVISTAKAPGAIGPYSQAVLVDRTIYISGQIGMDPSSGQLVSGGVAEEAKQALKNMGEILKAAGCDFTNVVKTTVLLADINDFNTVNEIYKQYFKSNFPARAAYQVAALPKGSRIEIEAVAIQGPLTTASL

Test system: primary AML samples
Assay: HLA class I ligandome analysis (W6/32 immunoaffinity purification, LC-MS/MS) of primary AML samples
Parameters: species or system human
Details: for Number of positive AMLs: HLA class I ligandome, AML patients (n=15), count for the HLA ligand (LiTAP) or, on protein lines, for the source protein (LiTAA); for Number of positive AMLs [rep. frequency]: representation frequency of the source protein (LiTAA) in AML patients (n=15)

Molecule | Number of positive AMLs | Number of positive AMLs [rep. frequency]
B1 | 3 | [20.0%]
B2 | 5 | [33.3%]
B3 | 3 | [20.0%]
B4 | 3 | [20.0%]
B5 | 3 | [20.0%]
B6 | 3 | [20.0%]
B7 | 3 | [20.0%]
B8 | 3 | [20.0%]
B9 | 3 | [20.0%]
B10 | 3 | [20.0%]
B11 | 3 | [20.0%]
